The source of these data is paper PMC3157352.

Sequences of proteins named here, by UniProt entry; tags and fusion partners are left off.
UniProt Q9NS91: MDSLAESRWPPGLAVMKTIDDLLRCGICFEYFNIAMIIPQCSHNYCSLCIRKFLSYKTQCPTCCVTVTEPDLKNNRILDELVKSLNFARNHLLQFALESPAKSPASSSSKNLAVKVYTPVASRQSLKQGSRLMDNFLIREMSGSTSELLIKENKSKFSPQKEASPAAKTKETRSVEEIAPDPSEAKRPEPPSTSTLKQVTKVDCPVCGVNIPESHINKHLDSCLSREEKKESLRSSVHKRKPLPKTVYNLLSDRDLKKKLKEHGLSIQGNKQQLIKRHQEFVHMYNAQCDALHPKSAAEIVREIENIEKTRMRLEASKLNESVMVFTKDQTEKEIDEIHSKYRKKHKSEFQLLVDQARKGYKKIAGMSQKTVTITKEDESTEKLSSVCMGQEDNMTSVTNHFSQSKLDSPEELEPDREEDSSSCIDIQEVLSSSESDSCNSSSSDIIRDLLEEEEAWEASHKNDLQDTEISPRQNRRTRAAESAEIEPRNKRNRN
UniProt P12004: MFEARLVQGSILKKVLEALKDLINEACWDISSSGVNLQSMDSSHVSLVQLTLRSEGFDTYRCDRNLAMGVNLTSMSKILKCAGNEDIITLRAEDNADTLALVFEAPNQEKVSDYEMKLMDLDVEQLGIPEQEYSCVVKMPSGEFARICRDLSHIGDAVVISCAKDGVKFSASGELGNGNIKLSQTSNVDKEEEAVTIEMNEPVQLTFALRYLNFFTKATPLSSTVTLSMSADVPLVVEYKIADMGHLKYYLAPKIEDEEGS

Results are given in words; binding and its absence hold for the method and conditions named. Some results given as binding are weak or reduced against the parent protein; the word gives no strength.

In this experiment the target is human RAD18, yeast two-hybrid fusion (human) (UniProt Q9NS91). Description: two-hybrid; S. cerevisiae AH109, pGADT7 (Gal4 activation domain) and pGBKT7 (Gal4 binding domain) fusions; spot assay on SD-L-W-H and SD-L-W-H-A; RAD18 against the 9-1-1 components also with DNA damage (50 Gy IR, HU, MMS, CPT).

“human PCNA, yeast two-hybrid fusion (from UniProt P12004 1-261)”: the binding result is “binds”.
